According to PubChem BioAssay AID504834 (National Center for Advancing Translational Sciences (NCATS), 2011):
Screen size: about 320,000 compounds; about 22,000 (6.9%) were called active. Inconclusive results, whose numbers are uncertain, are shown with a selection of clear calls. The call rests on the fitted dose curve; in most records, active means well fitted inhibition curve with a large enough effect; inconclusive means small, poorly fitted or top-dose-only effect, or another doubt; inactive means no such curve, though single readings can be large or run the other way. A potency beside an inconclusive call is a rough fit, not a confirmed value.

Assay: Primary qHTS for delayed death inhibitors of the malarial parasite plastid, 96 hour incubation
Conditions: P. falciparum luciferase reporter growth; series mostly up to 28.7 µM
How it was run: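 Erythrocytes infected with luciferase-expressing P. falciparum were dispensed at 2% hematocrit and 0.05% parasitemia (final), then incubated with compounds 96 hours at 37 C in 5% CO2. Luminescence after detection reagent addition reported growth.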
Potency means the concentration at half of the fitted maximal effect.

| SMILES | Potency |
| --- | --- |
| CSc1nnc(-c2ccc(S(=O)(=O)N3CCOCC3)cc2)n1C | inactive |
| Cc1ccc(NC(=O)c2cn(CCC#N)nc2-c2ccc3c(c2)OCCO3)c([N+](=O)[O-])c1 | inconclusive: 20.8 µM [inhibitor, partial curve, poor fit] |
| Cc1onc(-c2ccccc2)c1C(=O)Nc1sc2c(c1C#N)CCC(C)C2 (centres undefined) | inconclusive: 4.15 µM [inhibitor, single point] |
| CN(c1ccccc1)S(=O)(=O)c1ccc(NC(=O)COc2ccccc2)cc1 | inactive |
| CCOC(=O)C1(CC2CCCCO2)CCN(Cc2cc3ccccc3[nH]2)CC1 (centres undefined) | inconclusive: 11.7 µM [inhibitor, single point] |
| Cc1ccc(C(=O)CN2CCC(NC(=O)C3CCCCC3)CC2)cc1 | inactive |
| O=C(N/N=C/c1cccnc1)c1ccc(NC(=O)C(c2ccccc2)c2ccccc2)cc1 | inconclusive: 2.62 µM [inhibitor, single point] |
| COc1ccc2c(c1OC)C(C1c3c(cc4c(c3OC)OCO4)CCN1C)OC2=O (centres undefined) | inconclusive: 14.7 µM [inhibitor, single point] |
| CC1=CC(C)(C)N(C(=O)CSc2nnc(N)s2)c2cc(C)c(C)cc21 | inconclusive: 18.5 µM [inhibitor, single point] |
| O=C(c1cc(-c2ccc(F)cc2)on1)N1CCCc2ccccc21 | inconclusive: 10.4 µM [inhibitor, partial curve, poor fit] |
| COc1ccccc1NS(=O)(=O)c1cc(C(=O)NCC(c2ccc(F)cc2)N2CCOCC2)ccc1C (centres undefined) | inconclusive: 10.4 µM [inhibitor, single point] |
| CN(C)CCCNC(=O)c1ccc(Cl)c(S(=O)(=O)N2CCCCCC2)c1 | inconclusive: 18.5 µM [inhibitor, single point] |
| COc1cc2nc(N(CCCN(C)C)C(=O)c3ccc(S(=O)(=O)N4CCc5ccccc54)cc3)sc2cc1OC | inconclusive: 10.4 µM [inhibitor, single point] |
| CCOC(=O)c1cc(C(=O)NN)c(C)nc1C | inactive |
| Cc1ccc(NC(=S)NNc2ncc(C(F)(F)F)cc2Cl)c(C)c1 | inconclusive: 18.5 µM [inhibitor, single point] |
| Cc1ccc(-c2nn3c(C)nnc3c3ccccc23)cc1S(=O)(=O)NC(C)c1ccccc1 (centres undefined) | active: 7.38 µM |
| CC1(C)Cc2cccc(Oc3cc(NN4CCCCC4)c([N+](=O)[O-])cc3[N+](=O)[O-])c2O1 | active: 1.47 µM |
| COc1cccc(OCCOc2ccccc2OC(C)C)c1 | inactive |
| CCC(=O)N1CCc2cc(S(=O)(=O)Nc3ccccc3C)ccc21 | active: 0.928 µM |
| Cc1cccc(NC(=S)N/N=C2/CCCCc3ccccc32)c1 | inconclusive: 10.4 µM [inhibitor, single point] |
| Cc1ccc(-c2csc(NC(=S)NC(=O)c3cc4ccccc4o3)n2)cc1 | inactive |
| O=S(=O)(CCN1C=CC(C(F)(F)F)=NCC1)c1ccc(F)cc1 | inactive |
| COc1cc(OC)c(C2NC(=O)CCC2[N+](=O)[O-])cc1OC (centres undefined) | inconclusive: 9.28 µM [inhibitor, single point] |

| SMILES | Potency |
| --- | --- |
| CCC(=O)O[C@@]1(C(=O)SCF)[C@@H](C)C[C@H]2[C@@H]3C[C@@H](F)C4=CC(=O)C=C[C@@]4(C)[C@]3(F)[C@@H](O)C[C@]21C | active: 4.05 µM |
| Cc1nn(C)c(Oc2cccc(Cl)c2)c1C(=O)Nc1ccc(F)cc1 | inconclusive: 4.15 µM [inhibitor, partial curve, poor fit] |
| CCn1nc(NC(=O)c2ccco2)c2cc3ccccc3nc21 | active: 9.28 µM |
| CCOc1cccc(C(=O)NC(=S)Nc2ccc(N3CCN(CC)CC3)cc2)c1 | inconclusive: 18.5 µM [inhibitor, single point] |
| Cc1nc(C)c(C(=O)OCC(=O)Nc2ccccc2SCC#N)s1 | inactive |
| O=C(NCCn1cc(SCc2ccc(F)cc2)c2ccccc21)c1ccccc1F | inconclusive: 11.7 µM [inhibitor, single point] |
| C/C(=N\NC(=S)NC1CCCCC1)c1ccc(O)cc1 | inconclusive: 4.15 µM [inhibitor, full curve] |
| COc1cccc(NC(=O)C2CCN(S(=O)(=O)c3ccc4c(c3)N(C(C)=O)CCO4)CC2)c1 | inconclusive: 18.5 µM [inhibitor, single point] |
| CC(C)(C)NC(=O)CN1CCC(NC(=O)C23CC4CC(CC(C4)C2)C3)CC1 | inconclusive: 13.1 µM [inhibitor, single point] |
| O=C(Nc1ccnn1C1CCN(Cc2ccc3nonc3c2)CC1)c1cccc(F)c1 | inconclusive: 7.38 µM [inhibitor, partial curve, poor fit] |
| O=C(CSc1nccn(-c2ccc3c(c2)OCCO3)c1=O)Nc1ccccc1 | inactive |
| CC#CCOC(=O)c1c(C)nc2sc3c(c2c1N)CCC(O)C3 (centres undefined) | inconclusive: 18.5 µM [inhibitor, single point] |
| COc1ccc2sc(-c3ccccc3OC)c(-c3ccc4c(c3)OCCO4)c2c1 | active: 2.62 µM |
| CC(C)CNc1c(N)n(CC(C)C)c(=O)[nH]c1=O | inconclusive: 6.57 µM [inhibitor, partial curve] |
| CCN(CC)CCNC(=O)c1ccc2c(c1NCCO)C(=O)c1ccccc1C2=O | active: 4.65 µM |
| CN(CC(=O)Nc1ccc(Cl)cc1)C1=NS(=O)(=O)c2ccccc21 | inconclusive: 18.5 µM [inhibitor, single point] |
| CC1CCCC(C)N1C(=O)CSc1ccc(-c2ccc3c(c2)OCCO3)nn1 (centres undefined) | inactive |
| COc1ccc(NC(=O)c2cn(-c3ccccc3)nc2SC)cc1 | inactive |
| CCN(CC)S(=O)(=O)c1ccc(N2CCCC2)c(NC(=O)C2=NN(c3ccccc3)C(=O)CC2)c1 | active: 14.7 µM |
| O=c1[nH]c(-c2ccccn2)nc2sc(-c3ccccc3)cc12 | inconclusive: 1.31 µM [inhibitor, partial curve, poor fit] |
| Cc1ccc(CN(C(=O)COc2ccc(C)c(C)c2)C2CCS(=O)(=O)C2)o1 (centres undefined) | inconclusive: 6.57 µM [inhibitor, partial curve] |
| COc1ccc(NC(=O)Nc2nnc(C(C)(C)C)s2)cc1 | inactive |
| Cn1c(=O)[nH]c(=O)c2c1nc(N1CCCCC1)n2CCCSc1nnnn1-c1ccccc1 | inconclusive: 7.38 µM [inhibitor, partial curve, poor fit] |

In the list so far, these have a tert-butyl group.

| SMILES | Potency |
| --- | --- |
| CC(C)(C)NC(=O)CN1CCC(NC(=O)C23CC4CC(CC(C4)C2)C3)CC1 | inconclusive: 13.1 µM [inhibitor, single point] |
| COc1ccc(NC(=O)Nc2nnc(C(C)(C)C)s2)cc1 | inactive |

Further compounds follow.

| SMILES | Potency |
| --- | --- |
| CCOC(=O)Cc1csc(NC(=O)C(C)c2ccc([N+](=O)[O-])cc2)n1 (centres undefined) | inactive |
| CC(=O)Nc1sc(N/N=C\c2ccco2)nc1-c1cccs1 | inconclusive: 18.5 µM [inhibitor, single point] |
| Cc1cc(NCc2cccnc2)no1 | inconclusive: 0.0738 µM [inhibitor, full curve, poor fit] |
| O=C(CP(=O)(c1ccccc1)c1ccccc1)Nc1cccc(CP(=O)(c2ccccc2)c2ccccc2)c1 | active: 7.38 µM |
| N#C/C(=C/c1ccc(N2CCOCC2)o1)C(=O)Nc1ccccc1 | inactive |
| CC1Cc2ccccc2N1C(=O)CN1C(=O)C(=O)N(Cc2ccccc2)C1=O (centres undefined) | inactive |
| CCOc1ccc(CCNC(=O)C2CCN(S(=O)(=O)N3CCC(C)CC3)CC2)cc1OCC | inactive |
| CN1CCc2cccc3c2C1Cc1ccc(O)c(O)c1-3 (centres undefined) | active: 10.4 µM |
| Cc1c(CCOC(=O)c2cc([N+](=O)[O-])cc([N+](=O)[O-])c2)sc[n+]1CC(=O)c1ccccc1 | inconclusive: 6.57 µM [inhibitor, partial curve, poor fit] |
| Oc1oc(-c2ccccc2)nc1C=NCc1ccccc1 | inactive |
| Cc1cccc(NC(=O)CSc2nc3c([nH]c4ccccc43)c(=O)n2C)c1 | inconclusive: 2.94 µM [inhibitor, full curve, poor fit] |
| O=C(Nc1ccncc1)c1ccc2ccccc2c1 | inconclusive: 4.65 µM [inhibitor, partial curve] |
| O=C(CSc1cccc2cccnc12)Nc1cc(C(=O)O)cc(C(=O)O)c1 | inconclusive: 11.7 µM [inhibitor, single point] |
| CC12CCC(C(=O)NNc3ccccc3)(OC1=O)C2(C)C (centres undefined) | inconclusive: 3.7 µM [inhibitor, single point] |
| CC(=O)Nc1ccc(C(=O)CSc2ncn(-c3ccccc3)n2)cc1 | active: 13.1 µM |
| O=C(CC(Sc1ccc(Br)cc1)C(=O)O)c1ccc(Br)cc1 (centres undefined) | inconclusive: 18.5 µM [inhibitor, partial curve, poor fit] |
| COc1ccc(CC(NC(C)=O)C(=O)NC2CCN(C(=O)c3ccc([N+](=O)[O-])cc3)CC2)cc1OC (centres undefined) | inactive |
| CCN(CC)S(=O)(=O)c1cccc(-c2nnc(SCC#N)n2Cc2ccccc2)c1 | inconclusive: 13.1 µM [inhibitor, partial curve, poor fit] |
| CN(C)c1ccc(NC(=O)CN2CCC(C(=O)c3ccc(F)cc3)CC2)cc1 | inconclusive: 8.28 µM [inhibitor, partial curve, poor fit] |
| Cc1ccc(SCC(=O)c2cc(C)c(OC(=S)N(C)C)c(C)c2)cc1 | inconclusive: 18.5 µM [inhibitor, single point] |
| CSCCC(NC(=O)COc1ccccc1)C(=O)N1CCC(C(N)=O)CC1 (centres undefined) | inconclusive: 13.1 µM [inhibitor, single point] |
| S=c1[nH]nc(CCc2nc3ccccc3[nH]2)n1-c1ccccc1 | inconclusive: 18.5 µM [inhibitor, single point] |
| Cc1cccc(Oc2c([N+](=O)[O-])c(=O)n(C)c3ccccc23)c1 | inconclusive: 18.5 µM [inhibitor, single point] |

Some of these compounds in order of molecular weight, descending:

| SMILES | Potency |
| --- | --- |
| CC1CCCC(C)N1C(=O)CSc1ccc(-c2ccc3c(c2)OCCO3)nn1 (centres undefined) | inactive |
| CN(c1ccccc1)S(=O)(=O)c1ccc(NC(=O)COc2ccccc2)cc1 | inactive |
| CC(=O)Nc1ccc(C(=O)CSc2ncn(-c3ccccc3)n2)cc1 | active: 13.1 µM |
